No constants are given. Whether binding was seen depends on the method and setting. In cells and extracts the contact can be indirect. Some binding calls cover weakened binding; strength is not graded here.
Biological target: T1, human males absent on the first (hMOF) (human) (UniProt Q9H7Z6)
T1 sequence: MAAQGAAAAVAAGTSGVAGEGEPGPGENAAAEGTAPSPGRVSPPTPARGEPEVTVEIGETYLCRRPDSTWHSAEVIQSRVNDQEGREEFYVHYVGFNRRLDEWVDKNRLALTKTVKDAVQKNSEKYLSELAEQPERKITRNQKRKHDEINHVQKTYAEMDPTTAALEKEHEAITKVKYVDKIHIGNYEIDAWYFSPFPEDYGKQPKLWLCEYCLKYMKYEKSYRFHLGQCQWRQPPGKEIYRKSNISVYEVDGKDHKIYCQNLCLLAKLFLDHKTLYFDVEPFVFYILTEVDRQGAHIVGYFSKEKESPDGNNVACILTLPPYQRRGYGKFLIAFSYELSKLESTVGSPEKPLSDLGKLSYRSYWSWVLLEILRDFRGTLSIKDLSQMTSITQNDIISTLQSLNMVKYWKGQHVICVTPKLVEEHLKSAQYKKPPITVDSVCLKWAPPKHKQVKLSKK
Experiment: co-IP; total protein of OVCAR3 cells; primary antibody (anti-MDM2 or anti-hMOF) added to the lysate overnight at 4 °C, Protein A/G magnetic beads 2 h at 4 °C, 5 washes in lysis buffer, western blot; done in both directions

By UniProt entry, the sequences of proteins in these tests, tags left out.
UniProt Q00987: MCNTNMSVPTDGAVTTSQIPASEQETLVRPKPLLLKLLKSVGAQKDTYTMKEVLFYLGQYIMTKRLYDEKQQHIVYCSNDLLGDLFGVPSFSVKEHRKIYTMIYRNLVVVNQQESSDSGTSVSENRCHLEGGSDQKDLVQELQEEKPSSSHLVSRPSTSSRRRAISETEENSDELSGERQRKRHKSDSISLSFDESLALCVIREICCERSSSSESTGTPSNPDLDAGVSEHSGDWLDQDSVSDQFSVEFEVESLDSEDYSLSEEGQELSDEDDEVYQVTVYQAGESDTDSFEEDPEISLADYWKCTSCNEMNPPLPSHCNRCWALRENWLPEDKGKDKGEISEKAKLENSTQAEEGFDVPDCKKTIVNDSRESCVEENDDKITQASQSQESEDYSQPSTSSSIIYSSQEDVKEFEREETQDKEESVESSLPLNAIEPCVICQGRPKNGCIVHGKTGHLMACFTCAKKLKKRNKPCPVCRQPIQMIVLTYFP

binding: binds
Substance: Mouse double minute 2 homolog (MDM2) (from UniProt Q00987 1-491) (enzyme)
